Data from PubChem BioAssay AID588453 (National Center for Advancing Translational Sciences (NCATS), 2011).
About 4,000 (1%) of roughly 390,000 compounds were called active. All entries are inconclusive by the source's own rule. Clear calls are listed elsewhere. Calls follow the shape of the dose curve; as a rule, active = well fitted inhibition curve with a large enough effect; inconclusive = small, poorly fitted or top-dose-only effect; inactive = no such curve, though single readings can be large or run the other way.

Sequences of proteins named here, by UniProt entry; tags and fusion partners are left off.
UniProt O89049, whole entry: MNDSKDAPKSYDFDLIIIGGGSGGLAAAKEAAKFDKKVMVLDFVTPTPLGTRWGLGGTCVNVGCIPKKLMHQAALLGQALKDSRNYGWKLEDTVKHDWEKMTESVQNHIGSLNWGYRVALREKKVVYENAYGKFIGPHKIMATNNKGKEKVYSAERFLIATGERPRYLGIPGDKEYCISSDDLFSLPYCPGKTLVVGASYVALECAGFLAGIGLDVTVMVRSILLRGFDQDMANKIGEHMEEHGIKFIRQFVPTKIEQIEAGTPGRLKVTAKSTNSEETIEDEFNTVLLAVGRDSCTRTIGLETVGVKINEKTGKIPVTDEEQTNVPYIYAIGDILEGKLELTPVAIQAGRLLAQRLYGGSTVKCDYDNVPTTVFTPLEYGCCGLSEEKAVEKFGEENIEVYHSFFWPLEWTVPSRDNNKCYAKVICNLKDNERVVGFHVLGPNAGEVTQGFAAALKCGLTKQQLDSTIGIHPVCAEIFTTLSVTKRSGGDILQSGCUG

biological target: Thioredoxin reductase 1, cytoplasmic (Rattus norvegicus) (UniProt O89049); test: qHTS Assay for Inhibitors of Mammalian Selenoprotein Thioredoxin Reductase 1 (TrxR1): qHTS; conditions: recombinant rTrxR1, NADPH fluorescence consumption, selenite substrate; also: nearly all actives have a fitted effect of over 65% in size
Potency is read from the fitted curve at half-maximal effect.

Compound | Potency
CCOc1ccc(C)cc1CN(CCCl)CCCl | inconclusive: 39.8 µM
COc1ccc(C(=O)NCC2(N3CCOCC3)CCCCC2)cc1OC | inconclusive: 70.8 µM
